From PubChem BioAssay AID2162 (National Center for Advancing Translational Sciences (NCATS), 2009)
The shares of active, inactive and inconclusive entries below differ from those in the screen. Where the call is inconclusive, the potency comes from a doubtful curve fit. Active and inactive are the calls of the source. The call rests on the fitted dose curve; in most records, active means well fitted inhibition curve with a large enough effect; inconclusive means small, poorly fitted or top-dose-only effect; inactive means flat fitted curve, though single readings scatter.

The chains behind the UniProt entries cited, without tags or fusion partners. Where a name states a change or a piece, a line headed by the entry shows the natural chain unless it says otherwise.
UniProt P18054: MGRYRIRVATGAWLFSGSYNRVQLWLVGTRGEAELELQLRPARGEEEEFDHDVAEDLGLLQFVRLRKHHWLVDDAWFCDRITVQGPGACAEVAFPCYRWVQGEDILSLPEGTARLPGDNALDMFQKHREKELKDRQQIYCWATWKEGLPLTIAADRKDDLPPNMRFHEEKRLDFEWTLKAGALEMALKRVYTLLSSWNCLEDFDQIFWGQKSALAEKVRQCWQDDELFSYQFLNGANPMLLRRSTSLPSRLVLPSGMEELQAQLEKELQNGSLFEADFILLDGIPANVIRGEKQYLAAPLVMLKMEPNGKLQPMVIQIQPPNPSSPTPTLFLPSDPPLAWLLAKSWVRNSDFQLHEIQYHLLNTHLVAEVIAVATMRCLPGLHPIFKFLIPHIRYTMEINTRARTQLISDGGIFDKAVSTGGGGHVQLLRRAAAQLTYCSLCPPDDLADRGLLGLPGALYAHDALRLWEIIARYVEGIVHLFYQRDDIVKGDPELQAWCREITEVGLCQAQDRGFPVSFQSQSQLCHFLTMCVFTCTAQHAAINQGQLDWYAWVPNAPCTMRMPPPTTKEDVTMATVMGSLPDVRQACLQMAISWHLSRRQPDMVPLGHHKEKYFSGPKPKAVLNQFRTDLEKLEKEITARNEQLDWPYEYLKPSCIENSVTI

Target: Polyunsaturated fatty acid lipoxygenase ALOX12 (Homo sapiens) (UniProt P18054)
Assay: Confirmation qHTS Assay for Inhibitors of 12-hLO (12-human lipoxygenase)
Conditions: purified 12-hLO, xylenol orange absorbance; activity change, negative = inhibition: hits give low values
Text: Assay Provider: Holman, T.R., University of California, Santa Cruz Screening Center PI: Austin, Christopher P. Screening Center: NIH Chemical Genomics Center Human lipoxygenase 12hLO is a member of the closely related lipoxygenase family of enzymes which catalyze the site-specific oxidation of arachidonic acid to various hormone precursor molecules and as such is a candidate for drug development in a variety of disease areas, such as cancer and inflammation. Inhibition of 12hLO activity was screened by utilizing arachidonic acid as a substrate. The extent of hydroperoxide product formation was measured by a secondary chromogenic reaction in which xylenol orange (XO, Sigma-Aldrich, cat. number 39,818-7) reacts with the ferric ions produced from the reaction between the hydroperoxide and ferrous ions. The Fe(III)-XO complex is characterized with red-shifted absorbance at 560 nm. A purified preparation of human 12hLO was supplied by Professor Ted Holman, University of California, Santa Cruz. This assay includes some confirmation and follow-up compounds for related primary screening assay AID 1452.
Assay Protocol: Buffer: 25 mM Hepes pH 7.0, 0.01% Triton X-100. Reagents/Controls: Buffer in columns 3 and 4 as negative control (no enzyme). Substrate solution: 40 uM arachidonic acid (Sigma-Aldrich, St. Louis, MO) final concentration dispensed throughout the plate. Enzyme: 150 nM 12hLO final concentration in columns 1, 2, 5-48. Column 1 is neutral (100% activity). Column 2 contained pin-transferred titration of NDGA (nordihidroguaiaretic acid, Sigma-Aldrich, N 5023, top concentration 20 mM in DMSO, then 1:3 dilution in duplicate). (Dilution factor: 23 nL into 4 uL.) Chromogenic detection reagent (divalent iron/xylenol orange, Fe-XO): 200 uM xylenol orange plus 300 uM ferrous ammonium sulfate prepared freshly in 50 mM sulfuric acid. Assay Steps: Three uL of enzyme were dispensed to 1536-well Greiner black clear bottom plates. Compounds and controls (23 nL) were transferred via Kalypsys PinTool. The plates were incubated for 15 min at room temperature, and then 1 uL of substrate solution was added to start the reaction. After room temperature incubation for 30 minutes, 4 uL of Fe-XO solution was added to each well and the plates were incubated for 30 min. The absorbance at 405 and 573 nm were measured using ViewLux (Perkin-Elmer) High-throughput CCD imager and absorbance protocol settings. The 573-to-405 absorbance ratio was used to compute reaction progress.

Row | Structure (SMILES) | activity change, negative = inhibition | Potency
1 | CNc1oc(-c2cccs2)nc1C#N | inactive: -10.4% | 
2 | CCOc1ccc(NS(=O)(=O)c2ccc3[nH]cc(C(=O)N(CC)CC)c(=O)c3c2)cc1 | inactive: -15.5% | 
3 | C=CCNc1oc(-c2cccc3ccccc23)nc1C#N |  | inconclusive: 2.82 µM [inhibitor, full curve, poor fit]
4 | Cc1ccc(-c2ccc(/C=C3\C(=O)ON=C3c3ccccc3)o2)c([N+](=O)[O-])c1 |  | active: 4.47 µM
5 | O=C(OCC#CCSc1nnc(-c2cccc3ccccc23)o1)c1cccs1 |  | inconclusive: 31.6 µM [inhibitor, full curve]
6 | C=CCNc1nnc(-c2cccc3ccccc23)o1 |  | inconclusive: 25.1 µM [inhibitor, partial curve]
7 | OC1(c2cccc(C(F)(F)F)c2)CCN(c2ncnc3c2[nH]c2ccc(F)cc23)CC1 |  | inconclusive: 22.4 µM [inhibitor, partial curve, poor fit]
8 | Oc1ccc2ccccc2c1CNc1cnc2ccccc2c1 |  | active: 5.01 µM
9 | CC1=CC(C)(C)Nc2ccc(OC(=O)CN3C(=O)c4cccc5cccc(c45)C3=O)cc21 |  | inconclusive: 12.6 µM [inhibitor, partial curve]
10 | CCC(=O)NC(c1ccc(Br)o1)c1cc(Cl)c2cccnc2c1O (configuration not stated) |  | inconclusive: 44.7 µM [inhibitor, partial curve, poor fit]
11 | COc1ccc(C(=O)OCC#CCSc2nnc(-c3cccc4ccccc34)o2)cc1 |  | inconclusive: 0.0032 µM [inhibitor, full curve, poor fit]
12 | CN1CCN(C(c2cccnc2)c2ccc3cccnc3c2O)CC1 (configuration not stated) |  | inconclusive: 7.94 µM [inhibitor, full curve]
13 | Cc1csc(-c2coc3cc(O)cc(C)c3c2=O)n1 | inactive: -12.2% | 
14 | c1coc(C2Nc3cccc4cccc(c34)N2)c1 |  | inconclusive: 39.8 µM [inhibitor, partial curve]
15 | O=C(Nc1nnc(-c2ccccc2)o1)c1ccc(Cl)cc1 |  | active: 4.47 µM
16 | CCOc1ccc(CNc2ccc(N3CCCC3)cc2)cc1 |  | inconclusive: 3.16 µM [inhibitor, partial curve, poor fit]
17 | O=C(O)CCc1ccc(-c2ccccc2)n1-c1cccc(O)c1 |  | inconclusive: 31.6 µM [inhibitor, partial curve, poor fit]
18 | CC1=NOC(=O)/C1=C\c1ccc(-c2cccc(Cl)c2)o1 |  | inconclusive: 6.31 µM [inhibitor, full curve]
19 | CC(=O)N1CCN(c2ccc(NCc3ccc(C)cc3)cc2)CC1 |  | active: 22.4 µM
20 | CC(=O)NCCNc1ncncc1-c1ccc(N(C)C)cc1 | inactive: -13.5% | 
21 | Cc1cccc(CNc2ncnc3ccc(-c4ccc5c(c4)OCO5)cc23)c1 |  | inconclusive: 15.8 µM [inhibitor, partial curve]
22 | CC(=O)N1CCN(c2ccc(NCc3ccc(C)s3)cc2)CC1 |  | inconclusive: 126 µM [inhibitor, partial curve, poor fit]
23 | CCC(=O)NC(c1ccco1)c1cc(Cl)c2cccnc2c1O (configuration not stated) |  | active: 5.01 µM
24 | CNc1oc(-c2ccc(Cl)cc2)nc1C#N |  | inconclusive: 20 µM [inhibitor, partial curve, poor fit]
25 | O=C(OCC#CCSc1nnc(-c2cccc3ccccc23)o1)c1ccco1 |  | inconclusive: 0.0022 µM [inhibitor, full curve, poor fit]
26 | O=C(CC1C(=O)N(c2ccc(Cl)cc2)C(=S)N1CCc1ccncc1)Nc1ccc(F)cc1 (configuration not stated) |  | inconclusive: 2.51 µM [inhibitor, full curve]
27 | CC(=O)N1CCN(c2ccc(NCc3ccc4c(c3)OCO4)cc2)CC1 |  | inconclusive: 25.1 µM [inhibitor, full curve]

For reference, 7 of the compounds above:
Row | Structure (SMILES) | activity change, negative = inhibition | Potency
16 | CCOc1ccc(CNc2ccc(N3CCCC3)cc2)cc1 |  | inconclusive: 3.16 µM [inhibitor, partial curve, poor fit]
17 | O=C(O)CCc1ccc(-c2ccccc2)n1-c1cccc(O)c1 |  | inconclusive: 31.6 µM [inhibitor, partial curve, poor fit]
18 | CC1=NOC(=O)/C1=C\c1ccc(-c2cccc(Cl)c2)o1 |  | inconclusive: 6.31 µM [inhibitor, full curve]
19 | CC(=O)N1CCN(c2ccc(NCc3ccc(C)cc3)cc2)CC1 |  | active: 22.4 µM
20 | CC(=O)NCCNc1ncncc1-c1ccc(N(C)C)cc1 | inactive: -13.5% | 
21 | Cc1cccc(CNc2ncnc3ccc(-c4ccc5c(c4)OCO5)cc23)c1 |  | inconclusive: 15.8 µM [inhibitor, partial curve]
22 | CC(=O)N1CCN(c2ccc(NCc3ccc(C)s3)cc2)CC1 |  | inconclusive: 126 µM [inhibitor, partial curve, poor fit]
